Experimental data from patent publication US11104648B2, “Pyrazole derivative” (Zhejiang Research Institute of Chemical Industry Co., Ltd., priority 2018, dated 2021).
Some entries share one result that the patent states for a list of compounds.

Legend:
Format in all cases: in vivo
[1] = system: Eggs of Tetranychus Cinnabarinus; test: Activity assay of eggs of Tetranychus cinnabarinus (spray method, ovicidal)
Method: According to the solubility of the test compound, the crude drug was dissolved in N N-dimethylformamide, and then prepared into a test solution of the desired concentration with 1‰ Tween 80 aqueous solution. The content of N. N-dimethylformamide in the solution should not exceed 10%.
Spray method. The broad bean leaves with petioles were cut and inserted into a bottle with water. A certain number of female mites were placed, 24h later, adult mites were removed, and spray treatment was performed in 24 h. The experiment was repeated three times, and a blank control was set, and placed to an observation room (26±2° C., humidity 70%˜80%, 16h light per day) for culture. When the blank control group was incubated, the results were investigated. The non-incubated ones were used as death for investigation.

[2] = system: adult Tetranychus cinnabarinus; test: Activity assay of adult Tetranychus cinnabarinus (whole-plant spray on bean seedlings); settings: 48 h
Method: According to the solubility of the test compound, the crude drug was dissolved in N, N-dimethlfornamide, and then prepared into a test solution of the desired concentration with 1‰ Tween 80 aqueous solution. The content of N,N-dimethylformamide in the solution should not exceed 10%.
Two euphylla bean seedlings were taken, after inoculated with adult Tetranychus cinnabarinus and the base number was investigated, whole plants were sprayed with a hand-held sprayer. The experiment was repeated three times for each treatment, after treatment, placed in a standard observation room after treatment, to investigate the survival number of mites in 48 hand calculate the death rate.

[3] = system: Tetranychus cinnabarinus Nymphs; test: Activity assay of Tetranychus cinnabarinus nymphs (spray on broad bean leaves); settings: 48 h
Method: According to the solubility of the test compound, the crude drug was dissolved in N, N-dimethylformamide, and then prepared into a test solution of the desired concentration with 1‰ Tween 80 aqueous solution. The content of N,N-dimethylformamide in the solution should not exceed 10%.
The broad bean leaves with petioles were cut and inserted into a small bottle with water. A certain number of brightly colored, active female adult mites were placed, 24h later, adult mites were removed, and leaves with insufficient eggs were removed. When eggs were hatched and grew into nymphs, spray treatment was performed. The experiment was repeated three times, and a blank control was set, and placed to an observation room (26±2° C., humidity 70%˜80%, 16h light per day) for culture. 48 h later, the results were investigated. The nymphs were gently touched during investigation, and if no response, they were regarded as deaths.

[4] = concentration 5 mg/L, non-incubated eggs counted as dead

SMILES | ovicidal activity ([1]; concentration 2 mg/L) [%] | adult mite-killing activity ([2]; concentration 1.25 mg/L) [%] | nymph-killing activity ([3]; concentration 2 mg/L) [%] | ovicidal activity [1, 4] [%] | adult mite-killing activity ([2]; concentration 2.5 mg/L) [%] | nymph-killing activity ([3]; concentration 2.5 mg/L) [%]
CCOC(=O)OCO/C(=C(/C#N)c1ccc(C(C)(C)C)cc1)c1cc(C)nn1CC [Compound 548] | ≥ 90 | ≥ 90 | ≥ 90 |  |  | 
C#CCOC(=O)OC(C)O/C(=C(/C#N)c1ccc(C(C)(C)C)cc1)c1c(Cl)c(C)nn1C (racemic) [Compound 700] |  |  |  | ≥ 90 | ≥ 90 | ≥ 95
COCCOC(=O)OCO/C(=C(/C#N)c1ccc(C(C)(C)C)cc1)c1c(Cl)c(C)nn1C [Compound 660] |  |  |  | ≥ 90 | ≥ 90 | ≥ 95
CCn1nc(C)c(C)c1/C(OC(C)OC(=O)OCCCl)=C(\C#N)c1ccc(C(C)(C)C)cc1 (stereo not drawn) [Compound 974] |  |  |  | ≥ 90 | ≥ 90 | ≥ 95
Cc1nn(C)c(/C(OC(C)OC(=O)C(C)(C)C)=C(/C#N)c2ccc(C(C)(C)C)cc2)c1Cl (stereo not drawn) [Compound 1172] |  |  |  | ≥ 90 | ≥ 90 | ≥ 95
CCCOC(=O)OC(C)O/C(=C(/C#N)c1ccc(C(C)(C)C)cc1)c1c(C)c(C)nn1CC (stereo not drawn) [Compound 965] |  |  |  | ≥ 90 | ≥ 90 | ≥ 95
Cc1cc(/C(OC(C)OC(=O)c2cccnc2)=C(\C#N)c2ccc(C(C)(C)C)cc2)n(C)n1 (racemic) [Compound 46] |  |  |  | ≥ 90 | ≥ 90 | ≥ 95
CCCOC(=O)OC(C)O/C(=C(/C#N)c1ccc(C(C)(C)C)cc1)c1c(Cl)c(C)nn1CC (racemic) [Compound 773] |  |  |  | ≥ 90 | ≥ 90 | ≥ 95
CCCCCOC(=O)OCO/C(=C(/C#N)c1ccc(C(C)(C)C)cc1)c1c(Cl)c(C)nn1CC [Compound 748] |  |  |  | ≥ 90 | ≥ 90 | ≥ 95
Cc1nn(C)c(/C(OCOC(=O)OCC(F)(F)F)=C(\C#N)c2ccc(C(C)(C)C)cc2)c1C [Compound 851] |  |  |  | ≥ 90 | ≥ 90 | ≥ 95
CCn1nc(C)c(C)c1/C(OC(C)OC(=O)SCC(=O)OC)=C(\C#N)c1ccc(C(C)(C)C)cc1 (stereo not drawn) [Compound 993] |  |  |  | ≥ 90 | ≥ 90 | ≥ 95
CCCOC(=O)OCO/C(=C(/C#N)c1ccc(C(C)(C)C)cc1)c1c(C)c(C)nn1C [Compound 837] |  |  |  | ≥ 90 | ≥ 90 | ≥ 95
CCCC(=O)OC(CC)O/C(=C(/C#N)c1ccc(C(C)(C)C)cc1)c1cc(C)nn1C (racemic) [Compound 53] |  |  |  | ≥ 90 | ≥ 90 | ≥ 95
CCC(OC(=O)C(F)(F)F)O/C(=C(/C#N)c1ccc(C(C)(C)C)cc1)c1cc(C)nn1C (racemic) [Compound 63] |  |  |  | ≥ 90 | ≥ 90 | ≥ 95
Cc1nn(C)c(/C(OCOC(=O)OCC(F)(F)F)=C(\C#N)c2ccc(C(C)(C)C)cc2)c1Cl [Compound 659] |  |  |  | ≥ 90 | ≥ 90 | ≥ 95
CCCCCOC(=O)OC(C)O/C(=C(/C#N)c1ccc(C(C)(C)C)cc1)c1c(C)c(C)nn1C (racemic) [Compound 876] |  |  |  | ≥ 90 | ≥ 90 | ≥ 95
Cc1cc(/C(OC(C)OC(=O)CC#N)=C(\C#N)c2ccc(C(C)(C)C)cc2)n(C)n1 (racemic) [Compound 50] |  |  |  | ≥ 90 | ≥ 90 | ≥ 95
CCOC(=O)OC(C)O/C(=C(/C#N)c1ccc(C(C)(C)C)cc1)c1c(C)c(C)nn1C (racemic) [Compound 868] |  |  |  | ≥ 90 | ≥ 90 | ≥ 95
CSCCOC(=O)OC(C)O/C(=C(/C#N)c1ccc(C(C)(C)C)cc1)c1c(C)c(C)nn1C (racemic) [Compound 887] |  |  |  | ≥ 90 | ≥ 90 | ≥ 95
